Data: paper PMC9949265
These are yes or no findings as the source states them, for the method shown. Binding seen in cells or lysates may run through a third protein. Some results given as binding are weak or reduced against the parent protein; the word gives no strength.

Sequences of proteins named here, by UniProt entry; tags and fusion partners are left off. Residues count along the entry.
UniProt Q8NI17, residues 20-732: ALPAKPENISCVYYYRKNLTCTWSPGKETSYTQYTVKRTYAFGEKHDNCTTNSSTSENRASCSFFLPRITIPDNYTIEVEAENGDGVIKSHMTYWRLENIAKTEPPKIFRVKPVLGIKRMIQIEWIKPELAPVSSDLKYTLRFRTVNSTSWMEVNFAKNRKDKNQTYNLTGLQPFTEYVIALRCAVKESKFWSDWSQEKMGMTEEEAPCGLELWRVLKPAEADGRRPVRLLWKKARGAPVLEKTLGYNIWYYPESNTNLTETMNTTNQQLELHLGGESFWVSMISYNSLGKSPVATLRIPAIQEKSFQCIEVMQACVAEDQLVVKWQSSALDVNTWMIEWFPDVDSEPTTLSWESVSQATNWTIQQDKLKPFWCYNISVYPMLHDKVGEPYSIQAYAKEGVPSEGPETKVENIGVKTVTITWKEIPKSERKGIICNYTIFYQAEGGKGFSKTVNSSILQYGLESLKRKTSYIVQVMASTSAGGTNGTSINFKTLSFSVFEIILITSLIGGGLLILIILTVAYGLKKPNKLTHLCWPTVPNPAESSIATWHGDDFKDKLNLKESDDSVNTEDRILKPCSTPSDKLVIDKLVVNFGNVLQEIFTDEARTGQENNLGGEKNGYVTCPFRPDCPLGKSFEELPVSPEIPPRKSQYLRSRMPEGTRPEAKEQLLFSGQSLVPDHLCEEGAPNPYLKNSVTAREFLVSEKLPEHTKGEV
UniProt P20309: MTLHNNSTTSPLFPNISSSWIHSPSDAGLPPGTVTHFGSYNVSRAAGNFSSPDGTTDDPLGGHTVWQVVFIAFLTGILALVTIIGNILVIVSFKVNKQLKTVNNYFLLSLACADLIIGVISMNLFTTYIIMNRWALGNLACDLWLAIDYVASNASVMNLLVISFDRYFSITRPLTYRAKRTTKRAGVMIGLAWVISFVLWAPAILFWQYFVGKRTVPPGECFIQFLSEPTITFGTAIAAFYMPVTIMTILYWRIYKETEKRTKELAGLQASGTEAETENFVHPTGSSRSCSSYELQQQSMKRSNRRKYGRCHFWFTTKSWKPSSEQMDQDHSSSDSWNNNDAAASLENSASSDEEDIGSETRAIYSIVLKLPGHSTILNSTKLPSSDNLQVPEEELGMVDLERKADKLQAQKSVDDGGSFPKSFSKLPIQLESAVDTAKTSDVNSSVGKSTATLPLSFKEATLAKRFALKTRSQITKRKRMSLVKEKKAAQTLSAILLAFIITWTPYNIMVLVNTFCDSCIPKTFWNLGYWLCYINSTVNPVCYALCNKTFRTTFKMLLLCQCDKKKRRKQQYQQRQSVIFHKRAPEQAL

Legend:
[1] = target: Interleukin 31 receptor alpha (IL-31RA), C-terminal FLAG-tagged, overexpressed (UniProt Q8NI17); assay: co-IP; HEK293T transfected with IL-31RA plasmid or empty control plasmid for 72 h; RIPA lysate; agarose A/G beads with anti-FLAG or control IgG; washed three times with PBS; low pH glycine elution; blotted with anti-Flag, anti-IL31RA and anti-CHRM3
[2] = target: Interleukin 31 receptor alpha (IL-31RA), C-terminal FLAG-tagged, overexpressed (UniProt Q8NI17); assay: proximity ligation; in situ Duolink PLA in HEK293T cells co-transfected with IL-31RA and CHRM3 plasmids or empty control plasmids for 48 h; methanol-fixed; primary antibodies to IL-31RA (goat) and CHRM3 (rabbit); confocal microscopy

**Q.** For “Endogenous muscarinic acetylcholine receptor 3 (CHRM3) of HEK293T cells (from UniProt P20309 1-590)”, which binding [1] is on record?
**A.** binds

**Q.** Which binding [2] does the source give for “Muscarinic acetylcholine receptor 3 (CHRM3), overexpressed (from UniProt P20309 1-590)” here?
**A.** binds
